Three molecules from PMC4186968, “Molecular Basis for Coordinating Transcription Termination with Noncoding RNA Degradation” (Molecular Cell, 2014) can be followed below.

The chains behind the UniProt entries cited, without tags or fusion partners. Where a name states a change or a piece, a line headed by the entry shows the natural chain unless it says otherwise.
UniProt P53617: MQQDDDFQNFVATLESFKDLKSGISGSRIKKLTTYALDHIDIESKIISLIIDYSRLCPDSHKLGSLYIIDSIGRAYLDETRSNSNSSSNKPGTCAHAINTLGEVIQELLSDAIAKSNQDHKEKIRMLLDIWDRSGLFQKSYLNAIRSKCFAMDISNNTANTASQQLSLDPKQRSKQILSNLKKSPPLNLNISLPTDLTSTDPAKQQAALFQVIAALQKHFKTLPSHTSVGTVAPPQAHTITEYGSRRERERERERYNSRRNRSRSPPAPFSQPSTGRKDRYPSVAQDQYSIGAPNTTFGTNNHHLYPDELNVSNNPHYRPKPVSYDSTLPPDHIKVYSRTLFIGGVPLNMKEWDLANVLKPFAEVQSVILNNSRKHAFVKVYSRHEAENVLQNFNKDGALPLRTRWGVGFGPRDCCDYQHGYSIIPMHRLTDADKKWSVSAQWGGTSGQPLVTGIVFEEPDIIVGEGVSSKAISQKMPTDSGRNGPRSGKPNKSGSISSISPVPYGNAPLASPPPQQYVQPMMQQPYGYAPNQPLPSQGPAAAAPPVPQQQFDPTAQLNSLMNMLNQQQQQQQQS

The target of assay [1] is T1, recombinant Rrp6-Halo (S. cerevisiae) (UniProt Q12149).
T1 sequence: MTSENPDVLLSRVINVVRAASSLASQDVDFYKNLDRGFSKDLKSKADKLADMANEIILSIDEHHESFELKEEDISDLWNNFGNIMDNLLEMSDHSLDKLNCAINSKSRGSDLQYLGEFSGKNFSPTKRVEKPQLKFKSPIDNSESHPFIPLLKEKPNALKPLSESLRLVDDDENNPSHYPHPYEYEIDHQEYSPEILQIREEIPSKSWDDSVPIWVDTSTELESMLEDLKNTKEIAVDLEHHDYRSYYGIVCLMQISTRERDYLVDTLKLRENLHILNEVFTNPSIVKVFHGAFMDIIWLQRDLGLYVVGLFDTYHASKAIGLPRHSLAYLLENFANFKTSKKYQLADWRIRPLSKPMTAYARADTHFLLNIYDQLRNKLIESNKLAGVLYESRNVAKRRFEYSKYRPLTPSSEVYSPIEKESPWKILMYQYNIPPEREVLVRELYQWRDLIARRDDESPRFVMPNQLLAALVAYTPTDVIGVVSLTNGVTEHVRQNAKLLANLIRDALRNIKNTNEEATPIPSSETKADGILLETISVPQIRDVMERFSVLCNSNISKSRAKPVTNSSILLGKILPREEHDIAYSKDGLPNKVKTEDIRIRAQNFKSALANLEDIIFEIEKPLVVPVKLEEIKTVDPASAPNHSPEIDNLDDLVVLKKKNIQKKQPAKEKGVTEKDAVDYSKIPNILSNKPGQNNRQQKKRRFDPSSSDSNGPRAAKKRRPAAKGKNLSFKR
Kind of assay: pull-down; recombinant Rrp6-Halo as bait, E. coli extracts with His-tagged Nrd1 variants; extracts treated with RNase A or rNrd1-ΔRRM used.

Assay [2] deals with Nrd1ΔCIDp-TAP (S. cerevisiae) (UniProt P53617). Kind of assay: co-IP; Nrd1p-TAP or Nrd1ΔCIDp-TAP immunopurified from yeast extracts treated with RNase; eluted by TEV cleavage; western blot. On the technique in general: A western blot detects proteins with antibodies after separation by electrophoresis.

Results are given in words; binding and its absence hold for the method and conditions named. Binding seen in cells or lysates may run through a third protein. Binding calls can cover weak binding; strength is not graded here.

Take rNrd1-ΔRRM (from UniProt P53617): the binding entry in assay [1] is “binds”.

With rNrd1ΔCID (from UniProt P53617), the binding result in assay [1] is given as “binds”.

B1: Nab3p (protein, UniProt P38996 1-802)
chain: MSDENHNSDVQDIPSPELSVDSNSNENELMNNSSADDGIEFDAPEEEREAEREEENEEQHELEDVNDEEEEDKEEKGEENGEVINTEEEEEEEHQQKGGNDDDDDDNEEEEEEEEDDDDDDDDDDDDEEEEEEEEEEGNDNSSVGSDSAAEDGEDEEDKKDKTKDKEVELRRETLEKEQKDVDEAIKKITREENDNTHFPTNMENVNYDLLQKQVKYIMDSNMLNLPQFQHLPQEEKMSAILAMLNSNSDTALSVPPHDSTISTTASASATSGARSNDQRKPPLSDAQRRMRFPRADLSKPITEEEHDRYAAYLHGENKITEMHNIPPKSRLFIGNLPLKNVSKEDLFRIFSPYGHIMQINIKNAFGFIQFDNPQSVRDAIECESQEMNFGKKLILEVSSSNARPQFDHGDHGTNSSSTFISSAKRPFQTESGDMYNDDNGAGYKKSRRHTVSCNIFVKRTADRTYAIEVFNRFRDGTGLETDMIFLKPRMELGKLINDAAYNGVWGVVLVNKTHNVDVQTFYKGSQGETKFDEYISISADDAVAIFNNIKNNRNNSRPTDYRAMSHQQNIYGAPPLPVPNGPAVGPPPQTNYYQGYSMPPPQQQQQQPYGNYGMPPPSHDQGYGSQPPIPMNQSYGRYQTSIPPPPPQQQIPQGYGRYQAGPPPQPPSQTPMDQQQLLSAIQNLPPNVVSNLLSMAQQQQQQPHAQQQLVGLIQSMQGQAPQQQQQQLGGYSSMNSSSPPPMSTNYNGQNISAKPSAPPMSHQPPPPQQQQQQQQQQQQQQQQPAGNNVQSLLDSLAKLQK
Regarding B1, in assay [2], the binding entry is on record as “binds”.
